Source: patent US20140011978A1
These are yes or no findings as the source states them, for the method shown. Some results given as binding are weak or reduced against the parent protein; the word gives no strength.

Protein sequences, listed by entry. Tags and fused reporters are not part of them. Lines headed by an entry give the natural chain unless they say otherwise; changes in a name come on top. Chains listed by the source or under a name are the forms on record and can include a tag or linker. Residues count along the entry.
UniProt P17936, residues 28-291: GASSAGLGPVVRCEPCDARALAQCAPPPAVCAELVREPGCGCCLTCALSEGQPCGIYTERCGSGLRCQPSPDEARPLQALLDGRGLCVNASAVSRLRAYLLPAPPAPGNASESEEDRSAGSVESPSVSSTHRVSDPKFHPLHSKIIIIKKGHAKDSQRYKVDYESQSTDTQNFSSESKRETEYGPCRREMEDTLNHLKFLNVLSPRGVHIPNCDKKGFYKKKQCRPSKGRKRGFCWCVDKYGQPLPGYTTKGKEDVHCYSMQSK
UniProt P01137, residues 279-390: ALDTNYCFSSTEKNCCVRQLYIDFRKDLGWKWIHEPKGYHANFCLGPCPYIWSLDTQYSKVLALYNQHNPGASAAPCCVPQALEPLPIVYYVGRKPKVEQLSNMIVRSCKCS
UniProt P09038, residues 135-288: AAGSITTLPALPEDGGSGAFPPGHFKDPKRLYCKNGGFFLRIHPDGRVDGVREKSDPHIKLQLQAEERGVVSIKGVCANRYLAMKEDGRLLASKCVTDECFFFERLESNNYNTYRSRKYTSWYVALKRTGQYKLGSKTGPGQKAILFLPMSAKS
UniProt P24593, residues 21-272: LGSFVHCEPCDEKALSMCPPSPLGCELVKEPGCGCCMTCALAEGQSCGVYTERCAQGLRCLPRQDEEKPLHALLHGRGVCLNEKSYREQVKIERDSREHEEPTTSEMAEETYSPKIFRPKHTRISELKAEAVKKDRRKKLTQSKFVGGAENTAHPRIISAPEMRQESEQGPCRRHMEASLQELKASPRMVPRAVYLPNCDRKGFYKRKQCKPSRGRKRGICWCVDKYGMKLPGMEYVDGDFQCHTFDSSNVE
VEGF-A165 (P15692, form named): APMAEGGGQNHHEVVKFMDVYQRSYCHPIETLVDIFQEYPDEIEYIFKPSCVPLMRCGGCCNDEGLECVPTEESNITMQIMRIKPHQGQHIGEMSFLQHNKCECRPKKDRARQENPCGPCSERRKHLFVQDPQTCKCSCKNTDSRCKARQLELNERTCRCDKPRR
UniProt P01127, residues 82-190: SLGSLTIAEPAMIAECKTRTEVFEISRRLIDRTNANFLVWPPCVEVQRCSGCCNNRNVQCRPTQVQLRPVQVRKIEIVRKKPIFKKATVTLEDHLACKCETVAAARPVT

Columns and labels:
PDGF-DD = PDGF-DD (UniProt Q9GZP0); assay: ELISA: growth factor coated, Fg fragment in solution, A450 (methods analogous to Example 3)
TGF-β2 = target: T1, TGF-β2 (UniProt P61812); assay: as above
T1 sequence (looked up): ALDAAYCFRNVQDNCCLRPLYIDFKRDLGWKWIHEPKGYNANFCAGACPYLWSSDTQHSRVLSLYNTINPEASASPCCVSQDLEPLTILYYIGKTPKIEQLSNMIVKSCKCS

PlGF-2 = target: T2, PlGF-2 (UniProt P49763); assay: as above
T2 sequence (looked up): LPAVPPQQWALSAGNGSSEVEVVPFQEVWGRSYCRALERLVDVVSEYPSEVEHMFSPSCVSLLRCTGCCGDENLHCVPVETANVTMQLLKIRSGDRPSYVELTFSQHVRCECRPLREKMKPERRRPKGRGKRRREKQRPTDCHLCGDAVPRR

IGF-BP3 = IGF-BP3 (UniProt P17936); assay: as above
NT-3 = target: T3, NT-3 (UniProt P20783); assay: as above
T3 sequence (looked up): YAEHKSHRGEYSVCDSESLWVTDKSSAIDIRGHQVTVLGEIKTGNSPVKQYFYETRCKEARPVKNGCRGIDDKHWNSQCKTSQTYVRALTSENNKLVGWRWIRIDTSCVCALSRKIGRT

FGF-7 = target: T4, FGF-7 (UniProt P21781); assay: as above
T4 sequence (looked up): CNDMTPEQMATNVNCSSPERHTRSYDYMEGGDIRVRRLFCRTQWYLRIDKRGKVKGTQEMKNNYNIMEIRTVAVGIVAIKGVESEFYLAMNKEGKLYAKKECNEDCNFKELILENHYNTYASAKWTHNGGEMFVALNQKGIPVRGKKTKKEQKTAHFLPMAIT

TGF-β1 = TGF-β1 (UniProt P01137); assay: as above
FGF-2 = FGF-2 (UniProt P09038); assay: as above
BDNF = target: T5, BDNF (UniProt P23560); assay: as above
T5 sequence (looked up): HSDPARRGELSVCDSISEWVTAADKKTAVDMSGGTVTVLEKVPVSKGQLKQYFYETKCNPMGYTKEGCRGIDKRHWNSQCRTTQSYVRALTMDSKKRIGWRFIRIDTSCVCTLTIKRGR

IGF-BP5 = IGF-BP5 (UniProt P24593); assay: as above
VEGF-A165 = VEGF-A165 (UniProt P15692); assay: as above
BMP-2 = target: T6, BMP-2 (UniProt P12643); assay: as above
T6 sequence (looked up): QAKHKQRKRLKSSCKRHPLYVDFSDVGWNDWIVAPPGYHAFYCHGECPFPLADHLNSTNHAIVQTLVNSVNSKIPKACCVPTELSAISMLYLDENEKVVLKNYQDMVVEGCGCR

PDGF-BB = PDGF-BB (UniProt P01127); assay: as above
FGF-10 = target: T7, FGF-10 (UniProt O15520); assay: as above
T7 sequence (looked up): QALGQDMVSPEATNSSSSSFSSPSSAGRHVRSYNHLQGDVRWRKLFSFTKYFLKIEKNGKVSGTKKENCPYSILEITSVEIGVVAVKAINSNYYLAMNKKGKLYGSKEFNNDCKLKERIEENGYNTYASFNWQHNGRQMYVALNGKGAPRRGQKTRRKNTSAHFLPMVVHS

VEGF-B = target: T8, VEGF-B (UniProt P49765); assay: ELISA, cytokine coated, Fg β15-66 in solution (methods as Example 3)
T8 sequence (looked up): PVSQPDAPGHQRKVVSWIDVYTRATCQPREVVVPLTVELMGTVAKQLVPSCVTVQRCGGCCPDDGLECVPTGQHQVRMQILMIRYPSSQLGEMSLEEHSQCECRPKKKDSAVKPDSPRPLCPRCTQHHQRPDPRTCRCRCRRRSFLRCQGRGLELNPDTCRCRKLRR

Measured: binding

B1: Fg β1-66 (protein)
fibrinogen Bβ chain fragment: QGVNDNEEGFFSARGHRPLDKKREEAPSLRPAPPPISGGGYRARPAKAAATQKKVERKAPDAGGCG
binds: PDGF-DD | TGF-β2 | PlGF-2 | IGF-BP3 | NT-3 | FGF-7 | TGF-β1 | FGF-2 | BDNF | IGF-BP5 | VEGF-A165 | BMP-2 | PDGF-BB | FGF-10

B2: Fg β15-66 (protein)
chain: GSNQEQVSPLGHRPLDKKREEAPSLRPAPPPISGGGYRARPAKAAATQKKVERKAPDAGGCGHHHHHH
binds: VEGF-B
